According to paper PMC5833715:
These are yes or no findings as the source states them, for the method shown. In cells and extracts the contact can be indirect. Binding can be weak; no strength is given.

Chains of the proteins cited; added tags and fusions are not shown. Lines headed by an entry give the natural chain unless they say otherwise; changes in a name come on top.
UniProt P35613: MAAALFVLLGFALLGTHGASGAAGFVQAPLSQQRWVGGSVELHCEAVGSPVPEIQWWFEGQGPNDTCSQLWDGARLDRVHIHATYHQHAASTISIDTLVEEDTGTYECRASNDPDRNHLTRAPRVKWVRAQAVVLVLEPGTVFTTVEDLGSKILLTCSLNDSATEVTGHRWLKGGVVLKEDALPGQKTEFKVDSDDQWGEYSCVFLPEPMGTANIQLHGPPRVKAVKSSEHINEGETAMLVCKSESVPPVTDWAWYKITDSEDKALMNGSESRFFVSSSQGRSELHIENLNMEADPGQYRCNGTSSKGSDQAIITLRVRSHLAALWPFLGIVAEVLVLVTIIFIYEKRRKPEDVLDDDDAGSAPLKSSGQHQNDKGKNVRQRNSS
UniProt Q9Y4K3: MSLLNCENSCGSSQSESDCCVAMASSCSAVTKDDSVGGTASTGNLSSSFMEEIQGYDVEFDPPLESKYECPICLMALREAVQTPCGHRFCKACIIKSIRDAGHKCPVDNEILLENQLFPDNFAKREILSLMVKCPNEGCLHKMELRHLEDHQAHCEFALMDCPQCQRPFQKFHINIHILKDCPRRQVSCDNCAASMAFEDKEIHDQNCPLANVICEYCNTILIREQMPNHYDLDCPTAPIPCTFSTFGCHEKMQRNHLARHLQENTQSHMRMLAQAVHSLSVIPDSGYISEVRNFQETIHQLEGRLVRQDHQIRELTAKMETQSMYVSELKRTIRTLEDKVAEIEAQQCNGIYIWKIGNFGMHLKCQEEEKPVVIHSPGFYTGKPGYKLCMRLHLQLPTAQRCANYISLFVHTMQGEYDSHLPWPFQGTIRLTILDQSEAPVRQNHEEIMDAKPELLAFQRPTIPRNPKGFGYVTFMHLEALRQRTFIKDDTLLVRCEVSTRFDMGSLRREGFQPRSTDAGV

Target: CD147/Basigin (human (endogenous in HaCaT and A431)) (UniProt P35613)
Experiment: co-IP; endogenous immunoprecipitation with a CD147 antibody (control IgG) from HaCaT and A431 cell extracts; NP40 buffer, overnight at 4 °C, protein A/G beads; western blotting

| binding | Substance |
| --- | --- |
| binds | EGFR (epidermal growth factor receptor) (from UniProt P00533 25-1210) |
| binds | Tumor necrosis factor receptor-associated factor 6 (TRAF6) (from UniProt Q9Y4K3 1-522) |
